The target of experiment [1] is T1, HDAC8 (human (endogenous in HeLa and HEK 293 T)) (UniProt Q9BY41).
T1 sequence: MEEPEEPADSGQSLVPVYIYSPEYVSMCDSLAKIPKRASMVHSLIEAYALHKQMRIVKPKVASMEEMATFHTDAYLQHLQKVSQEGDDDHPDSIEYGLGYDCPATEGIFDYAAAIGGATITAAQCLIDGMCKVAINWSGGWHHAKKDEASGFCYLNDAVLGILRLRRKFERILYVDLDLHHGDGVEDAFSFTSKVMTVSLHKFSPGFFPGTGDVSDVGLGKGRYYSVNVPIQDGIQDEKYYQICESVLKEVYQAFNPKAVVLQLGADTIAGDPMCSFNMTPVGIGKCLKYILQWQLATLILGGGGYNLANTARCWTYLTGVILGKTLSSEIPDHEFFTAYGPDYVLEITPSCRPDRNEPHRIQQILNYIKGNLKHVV
As to the kind of experiment: co-IP; endogenous proteins of HeLa and HEK 293 T lysates; IP with anti-HDAC8 antibody, reverse IP with the partner's antibody (tubulin, HDAC6); Protein A beads; immunoblot. A general note: A western blot detects proteins with antibodies after separation by electrophoresis.

By UniProt entry, the sequences of proteins in these tests, tags left out.
UniProt Q9BQE3: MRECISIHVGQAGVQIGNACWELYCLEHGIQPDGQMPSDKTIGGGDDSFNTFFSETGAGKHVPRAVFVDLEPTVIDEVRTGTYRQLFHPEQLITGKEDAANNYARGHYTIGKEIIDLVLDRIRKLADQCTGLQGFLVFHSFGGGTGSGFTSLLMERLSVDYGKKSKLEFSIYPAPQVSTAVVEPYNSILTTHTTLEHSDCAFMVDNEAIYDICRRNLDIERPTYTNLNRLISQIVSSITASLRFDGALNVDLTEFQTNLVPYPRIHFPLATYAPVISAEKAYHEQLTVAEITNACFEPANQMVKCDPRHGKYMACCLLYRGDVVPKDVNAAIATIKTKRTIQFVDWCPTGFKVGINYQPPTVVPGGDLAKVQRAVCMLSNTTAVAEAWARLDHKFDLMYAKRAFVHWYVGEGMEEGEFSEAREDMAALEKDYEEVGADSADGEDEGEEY

Experiment [2] deals with Alpha tubulin (TUBA1-C, Human Alpha Tubulin chain 1 C isoform) (human (endogenous in HeLa and HEK 293 T)) (UniProt Q9BQE3). Described as above.

Consider three molecules from PMC5930436, “Overexpressed HDAC8 in cervical cancer cells shows functional redundancy of tubulin deacetylation with HDAC6” (Cell Communication and Signaling : CCS, 2018).

These are yes or no findings as the source states them, for the method shown. Binding seen in cells or lysates may run through a third protein. Some binding calls cover weakened binding; strength is not graded here.

With “Acetylated alpha tubulin (from UniProt Q9BQE3 1-449)”, the binding result in experiment [1] is recorded as “binds”. As for “Alpha tubulin (TUBA1-C, Human Alpha Tubulin chain 1 C isoform) (from UniProt Q9BQE3 1-449)”, the binding entry in experiment [1] is on record as “binds”.

B1: HDAC8 (enzyme, UniProt Q9BY41 1-377)
chain: T1 sequence
B1: the binding entry in experiment [2] is reported as “binds”.
